Data published in patent publication US6448392B1, “Lipid derivatives of antiviral nucleosides: liposomal incorporation and method of use” (Chimerix, Inc., priority 1985, dated 2002).
Counter-ions that a name gives are not always drawn. At least one structure is not confirmed: it was looked up by name or label, or the drawing left a doubt.

Test system: HIV in CEM (wild type) cells
Experiment: Experiment I276: antiviral protection of CEM cells by preincubation, p24 in supernates
Type: cell-based
Protocol: The cells were then washed twice with PBS, and fresh RPMI media added. Each group of cells was then divided into three batches. One batch was immediately infected with HIV, as noted above; after washing away unattached HIV, the sample was allowed to incubate in media alone for 3 days. Two other batches were allowed to incubate in media alone for either 24 or 48 hours to allow any intracellular antiviral agent present to become depleted. Then they were infected with HIV, the cells washed free of virus, and fresh RPMI media added. After 3 days of further incubation, the supernates of all batches were tested for the presence of p24 protein.
CEM cells were subjected to HIV infection without preincubation; drug was added following HIV infection as indicated, and the cells were incubated for 3 days.
After a further incubation for 3 days, p24 was measured.

SMILES: CCCCCCCCCCCCCC(=O)OC[C@H](COP(=O)(O)OC[C@H]1O[C@@H](n2cc(C)c(=O)[nH]c2=O)C[C@@H]1N=[N+]=[N-])OC(=O)CCCCCCCCCCCCC [LN1, 1,2-Dimyristoylglycerophospho-5′-(3′-azido-3′-deoxy)thymidine, Monosodium Salt]
- p24 after 3 days incubation (CEM controls, no preincubation, 7.14 μM drug added following HIV infection): 16; 16 ng/ml
- p24 after 3 days incubation (CEM preincubated 3 days with 7.14 μM, pre-infection interval without drug 24 h): 6; 7 ng/ml
- p24 after 3 days incubation (CEM preincubated 3 days with 7.14 μM, pre-infection interval without drug 48 h): 4; 15 ng/ml
